Record: PubChem BioAssay AID1259292 (Sanger Institute, 2017)

Screen: 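Kinase silencing that boosts cell killing by targeted cancer drugs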 (follow-up of hits)
Cells: human colorectal cancer RCM1 cells
Reagent: single siRNA against human genes
Conditions: anchor drugs BYL719 at 1 µM, cetuximab at 5 µg/ml or trametinib at 10 nM, or DMSO vehicle; exposure time not given
Measured: 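Viability of cells relative to control pool 2 (non-targeting) following DMSO or drug (BYL719 1 µM, cetuximab 5 µg/ml, trametinib 10 nM), plus synergy scores by drug; averaged replicates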
Direction: synergy score with trametinib and synergy score with cetuximab and synergy score with BYL719: higher = stronger combined killing beyond expected (synthetic lethal); viability with siRNA alone (DMSO): higher = more viable cells
Rule for the call: 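a gene counts as synergistic when its synergy score is over 0.10 with at least one of the three drugs; otherwise no synergy with any drug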
Meaning of the calls: active = synergy with at least one anchor drug; inactive = no synergy with any anchor drug
The whole screen tested 160 reagents; shown is an unselected part. In the full data, 64 (40%) got an active call. 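Four separate siRNAs per gene; a call can rest on any single drug, so look at each drug's score.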 A number with no mark means an inactive call. The numbers tell different reagents against one gene apart. Viability is capped at 1. Not all columns of the deposit are shown. Not given: the amount of reagent, the time to read-out.

no.	gene	reagent no.	synergy score with trametinib	synergy score with cetuximab	synergy score with BYL719	viability with siRNA alone (DMSO) (fraction of control)
1	KCNH8 (potassium voltage-gated channel subfamily H member 8)	1	0.151 (active)	-0.106	-0.103	0.643
2	KCNH8 (potassium voltage-gated channel subfamily H member 8)	2	0.28 (active)	0.123	-0.0864	0.655
3	KCNH8 (potassium voltage-gated channel subfamily H member 8)	3	-0.038	-0.0686	-0.162	1
4	KCNH8 (potassium voltage-gated channel subfamily H member 8)	4	0.104 (active)	0.048	-0.00939	0.998
5	EPHA6 (EPH receptor A6)	1	0.111 (active)	-0.0732	-0.18	0.914
6	EPHA6 (EPH receptor A6)	2	0.182 (active)	-0.0445	0.104	0.71
7	EPHA6 (EPH receptor A6)	3	0.123 (active)	0.209	0.146	0.741
8	EPHA6 (EPH receptor A6)	4	-0.133	-0.0113	-0.0642	1
9	IKBKB (inhibitor of nuclear factor kappa B kinase subunit beta)	1	0.0881	-0.0941	-0.12	0.656
10	IKBKB (inhibitor of nuclear factor kappa B kinase subunit beta)	2	-0.0109	0.0284	-0.0138	0.805
11	IKBKB (inhibitor of nuclear factor kappa B kinase subunit beta)	3	-0.109	-0.00835	0.0112	0.938
12	IKBKB (inhibitor of nuclear factor kappa B kinase subunit beta)	4	-0.123	-0.215	-0.217	0.752
13	NLK (nemo like kinase)	1	-0.159	0.0497	-0.168	0.972
14	NLK (nemo like kinase)	2	0.223 (active)	0.00738	0.0344	0.76
15	NLK (nemo like kinase)	3	-0.0771	-0.22	-0.305	0.822
16	NLK (nemo like kinase)	4	-0.159	-0.0686	-0.103	1
17	MAPK4 (mitogen-activated protein kinase 4)	1	0.0565	-0.00832	-0.162	1
18	MAPK4 (mitogen-activated protein kinase 4)	2	0.141 (active)	-0.0273	0.0632	0.903
19	MAPK4 (mitogen-activated protein kinase 4)	3	0.101 (active)	-0.0519	-0.0489	0.994
20	MAPK4 (mitogen-activated protein kinase 4)	4	0.0472	-0.0781	0.068	0.673

Records above whose gene name starts with M or m:
gene	reagent no.	synergy score with trametinib	synergy score with cetuximab	synergy score with BYL719	viability with siRNA alone (DMSO) (fraction of control)
MAPK4 (mitogen-activated protein kinase 4)	1	0.0565	-0.00832	-0.162	1
MAPK4 (mitogen-activated protein kinase 4)	2	0.141 (active)	-0.0273	0.0632	0.903
MAPK4 (mitogen-activated protein kinase 4)	3	0.101 (active)	-0.0519	-0.0489	0.994
MAPK4 (mitogen-activated protein kinase 4)	4	0.0472	-0.0781	0.068	0.673
